From article PMC4403444
Results are given in words; binding and its absence hold for the method and conditions named. Binding seen in cells or lysates may run through a third protein. Some binding calls cover weakened binding; strength is not graded here.

Sequences of proteins named here, by UniProt entry; tags and fusion partners are left off.
UniProt P20263: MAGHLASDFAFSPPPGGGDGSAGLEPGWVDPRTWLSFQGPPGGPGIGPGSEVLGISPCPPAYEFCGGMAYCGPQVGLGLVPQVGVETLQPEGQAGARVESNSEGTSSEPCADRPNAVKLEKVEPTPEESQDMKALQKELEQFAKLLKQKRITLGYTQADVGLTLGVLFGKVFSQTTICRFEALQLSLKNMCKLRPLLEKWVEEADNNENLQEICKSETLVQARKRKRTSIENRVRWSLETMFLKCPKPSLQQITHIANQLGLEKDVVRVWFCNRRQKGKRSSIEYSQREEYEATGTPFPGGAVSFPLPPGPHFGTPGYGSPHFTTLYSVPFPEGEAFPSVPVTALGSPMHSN
UniProt B2RWS6: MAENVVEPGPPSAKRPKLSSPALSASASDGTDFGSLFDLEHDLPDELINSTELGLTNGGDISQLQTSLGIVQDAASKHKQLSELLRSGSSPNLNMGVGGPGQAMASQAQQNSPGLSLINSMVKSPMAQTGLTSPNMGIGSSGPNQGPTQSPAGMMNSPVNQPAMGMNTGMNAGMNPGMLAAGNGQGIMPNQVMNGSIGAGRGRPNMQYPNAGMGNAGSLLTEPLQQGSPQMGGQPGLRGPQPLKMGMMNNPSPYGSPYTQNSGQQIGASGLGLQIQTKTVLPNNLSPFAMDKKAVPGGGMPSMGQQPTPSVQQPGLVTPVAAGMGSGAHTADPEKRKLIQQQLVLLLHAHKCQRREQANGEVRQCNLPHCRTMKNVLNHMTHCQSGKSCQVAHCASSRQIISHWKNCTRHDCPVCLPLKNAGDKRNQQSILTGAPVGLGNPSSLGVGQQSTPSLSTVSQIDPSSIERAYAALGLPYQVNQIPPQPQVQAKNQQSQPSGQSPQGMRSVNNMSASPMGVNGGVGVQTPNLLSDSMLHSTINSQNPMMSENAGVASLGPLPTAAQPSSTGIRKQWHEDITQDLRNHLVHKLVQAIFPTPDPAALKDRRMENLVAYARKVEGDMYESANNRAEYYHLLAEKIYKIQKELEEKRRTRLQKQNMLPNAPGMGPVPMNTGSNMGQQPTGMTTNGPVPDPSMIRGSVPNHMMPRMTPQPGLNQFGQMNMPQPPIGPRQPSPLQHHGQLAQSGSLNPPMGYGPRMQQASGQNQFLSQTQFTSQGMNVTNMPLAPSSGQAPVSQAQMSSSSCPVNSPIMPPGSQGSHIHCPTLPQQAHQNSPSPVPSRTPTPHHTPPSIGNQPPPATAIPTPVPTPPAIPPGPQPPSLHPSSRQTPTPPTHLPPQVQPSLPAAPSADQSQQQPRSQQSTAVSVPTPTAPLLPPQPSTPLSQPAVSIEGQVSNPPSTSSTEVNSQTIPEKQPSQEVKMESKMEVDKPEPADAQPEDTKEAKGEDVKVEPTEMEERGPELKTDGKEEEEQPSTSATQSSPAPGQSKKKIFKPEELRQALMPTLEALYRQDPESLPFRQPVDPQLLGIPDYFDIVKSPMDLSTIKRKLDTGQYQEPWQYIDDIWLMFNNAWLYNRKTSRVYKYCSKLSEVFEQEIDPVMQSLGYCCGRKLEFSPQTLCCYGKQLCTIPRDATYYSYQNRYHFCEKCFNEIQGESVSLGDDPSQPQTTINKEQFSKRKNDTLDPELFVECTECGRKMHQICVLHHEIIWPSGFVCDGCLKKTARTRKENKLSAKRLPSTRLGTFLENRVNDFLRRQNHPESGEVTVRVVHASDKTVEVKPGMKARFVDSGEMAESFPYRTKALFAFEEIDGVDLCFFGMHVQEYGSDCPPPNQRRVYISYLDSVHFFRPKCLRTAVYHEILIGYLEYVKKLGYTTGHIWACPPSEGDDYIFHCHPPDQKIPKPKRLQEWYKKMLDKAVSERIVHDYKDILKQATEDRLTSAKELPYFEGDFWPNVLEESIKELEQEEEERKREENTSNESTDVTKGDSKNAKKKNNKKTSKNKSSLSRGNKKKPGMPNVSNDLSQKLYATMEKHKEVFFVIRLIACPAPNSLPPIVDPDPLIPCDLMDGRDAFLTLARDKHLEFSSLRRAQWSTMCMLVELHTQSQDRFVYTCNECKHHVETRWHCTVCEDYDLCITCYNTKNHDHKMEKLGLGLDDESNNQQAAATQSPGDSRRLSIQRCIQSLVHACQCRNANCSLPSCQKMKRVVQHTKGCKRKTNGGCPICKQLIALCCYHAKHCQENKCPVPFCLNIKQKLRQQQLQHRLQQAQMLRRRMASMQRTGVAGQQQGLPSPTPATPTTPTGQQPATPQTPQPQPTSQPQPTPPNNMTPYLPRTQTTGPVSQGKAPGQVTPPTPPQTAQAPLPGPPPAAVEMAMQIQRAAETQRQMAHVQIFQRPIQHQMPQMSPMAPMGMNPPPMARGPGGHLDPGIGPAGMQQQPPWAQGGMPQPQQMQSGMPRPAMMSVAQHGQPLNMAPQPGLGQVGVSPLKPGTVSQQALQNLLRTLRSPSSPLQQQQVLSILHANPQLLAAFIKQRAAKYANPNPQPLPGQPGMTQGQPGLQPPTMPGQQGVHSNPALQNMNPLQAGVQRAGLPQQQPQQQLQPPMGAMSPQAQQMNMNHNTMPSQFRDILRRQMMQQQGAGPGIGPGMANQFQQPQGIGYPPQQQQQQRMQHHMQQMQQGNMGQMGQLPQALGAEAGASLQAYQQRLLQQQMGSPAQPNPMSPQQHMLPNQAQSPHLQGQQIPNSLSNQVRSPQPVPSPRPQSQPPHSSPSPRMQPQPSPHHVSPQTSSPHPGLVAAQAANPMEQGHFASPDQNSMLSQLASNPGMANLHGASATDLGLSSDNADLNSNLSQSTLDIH
UniProt P60122: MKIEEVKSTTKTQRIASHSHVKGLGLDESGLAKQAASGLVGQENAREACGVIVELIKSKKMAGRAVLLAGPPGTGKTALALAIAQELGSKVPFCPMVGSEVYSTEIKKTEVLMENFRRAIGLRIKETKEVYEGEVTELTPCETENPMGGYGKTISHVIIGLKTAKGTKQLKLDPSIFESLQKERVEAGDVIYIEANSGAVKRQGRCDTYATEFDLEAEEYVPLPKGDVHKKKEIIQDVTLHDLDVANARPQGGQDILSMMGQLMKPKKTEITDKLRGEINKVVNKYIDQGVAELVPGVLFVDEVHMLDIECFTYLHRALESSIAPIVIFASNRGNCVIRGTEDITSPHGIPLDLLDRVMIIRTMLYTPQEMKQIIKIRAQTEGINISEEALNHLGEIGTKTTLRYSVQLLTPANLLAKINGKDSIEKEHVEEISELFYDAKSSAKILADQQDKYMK

What was measured:
Test in all cases: co-IP; ES cell extracts (ZHBTc4; lysis buffer 200 mM NaCl, 50 mM Tris-HCl pH 8.0, 0.5% NP40), about 20 mg extract immunoprecipitated overnight with 2 ug control IgG, anti-Oct4, anti-Nanog or anti-Pontin antibody, protein A agarose, washes with 150 mM NaCl; immunoblot; endogenous proteins …
[1] = molecular target: Oct4 (mouse (endogenous in ZHBTc4 ES cells)) (UniProt P20263)
[2] = molecular target: p300 (mouse (endogenous in ES cells)) (UniProt B2RWS6)
[3] = molecular target: T1, Nanog (mouse (endogenous in ZHBTc4 ES cells)) (UniProt Q80Z64)
T1 sequence: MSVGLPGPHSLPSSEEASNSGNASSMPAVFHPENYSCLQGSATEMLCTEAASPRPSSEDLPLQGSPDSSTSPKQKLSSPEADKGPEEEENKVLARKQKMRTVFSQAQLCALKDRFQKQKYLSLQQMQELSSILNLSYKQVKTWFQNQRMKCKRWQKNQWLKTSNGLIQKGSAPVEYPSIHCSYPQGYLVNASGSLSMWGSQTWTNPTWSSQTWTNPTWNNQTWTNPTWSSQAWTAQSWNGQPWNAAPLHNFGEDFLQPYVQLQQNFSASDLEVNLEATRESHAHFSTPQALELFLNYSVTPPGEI

binding [1]: binds | binding [2]: binds | binding [3]: no binding
Substance: Pontin (from UniProt P60122 1-456)
